# PubChem BioAssay (NCATS)
# The list shows a part of the results. The main result of the screen is listed elsewhere. These columns were measured beside it and carry no call. Compounds called inactive in the main read-out are mostly missing here. Potencies come from curve fits of mixed quality, noted in brackets.
# Experiment: S16 Schwann cell PMP22 intronic element beta-lactamase assay (AID 624044)
# Conditions: S16 rat Schwann cells, PMP22 element beta-lactamase FRET, 24 h; measured here: 460 nm blue channel
# In short: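 Beta-lactamase reporter under a PMP22 intronic regulatory element in stable S16 rat Schwann cells; 24 h compound exposure. 460 nm blue signal normalized between DMSO (0%) and potassium clavulanate, with 535 nm FRET tracking viability; curves classed by r2 and response.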
row,Structure (SMILES),AC50
1,c1ccc2c(c1)OCC(C1=NCCN1)O2 (stereo not drawn),"14.1 µM [falling, single point]"
2,O=c1[nH]cc(F)c(=O)[nH]1,"4.46 µM [falling, full curve]"
3,OCCN1CCN(CCCN2c3ccccc3Sc3ccc(C(F)(F)F)cc32)CC1,"22.4 µM [falling, partial curve]"
